# In the supplement of paper PMC4604168 (melanoma cell lines):
# The other results are listed elsewhere or left out. Single values are uncertain, as repeats are few or missing.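 The apoptosis fraction was the count of cleaved-PARP antibody-stained nuclei relative to all DNA-stained nuclei, imaged in 1,536-well plates. Screening doses were set so most cells survived, and baseline and induced cleaved-PARP levels vary greatly across cell lines.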
# Legend:
# Test in all cases: cleaved PARP positive nuclei fraction relative to DMSO control; melanoma cells; higher = more apoptosis
# Details in all cases: library dose: low library concentration; 72 h
# [1] = tested on: CBRC034 (line from a melanoma biopsy)
# [2] = tested on: COLO792
# [3] = tested on: COLO800
# [4] = tested on: COLO829
# [5] = tested on: G361
# [6] = tested on: IPC-298
# [7] = tested on: IST-MEL1
# [8] = tested on: LB2518-MEL
# [9] = tested on: LOXIMVI
# [10] = tested on: MEL-HO
smiles,measurement,setting,value
"CCN(CC)CCNC(=O)c1c(C)[nH]c(/C=C2\C(=O)Nc3ccc(F)cc32)c1C [sunitinib] + N.N.[Cl][Pt][Cl] [cisplatin] (first compound 0.4 µM, partner dose 1.6 µM)",cleaved PARP positive nuclei fraction,[1],33.3%
same,cleaved PARP positive nuclei fraction,[2],45.4%
same,cleaved PARP positive nuclei fraction,[3],89.9%
same,cleaved PARP positive nuclei fraction,[4],100%
same,cleaved PARP positive nuclei fraction,[5],109%
same,cleaved PARP positive nuclei fraction,[6],86.9%
same,cleaved PARP positive nuclei fraction,[7],39.4%
same,cleaved PARP positive nuclei fraction,[8],81.8%
same,cleaved PARP positive nuclei fraction,[9],189%
same,cleaved PARP positive nuclei fraction,[10],75.4%
"N#CC[C@H](C1CCCC1)n1cc(-c2ncnc3[nH]ccc23)cn1 [ruxolitinib] + N.N.[Cl][Pt][Cl] [cisplatin] (first compound 1 µM, partner dose 1.6 µM)",cleaved PARP positive nuclei fraction,[1],67%
same,cleaved PARP positive nuclei fraction,[2],80.6%
same,cleaved PARP positive nuclei fraction,[3],82.3%
same,cleaved PARP positive nuclei fraction,[4],128%
same,cleaved PARP positive nuclei fraction,[5],154%
same,cleaved PARP positive nuclei fraction,[6],43.4%
same,cleaved PARP positive nuclei fraction,[7],35.2%
same,cleaved PARP positive nuclei fraction,[8],98.9%
same,cleaved PARP positive nuclei fraction,[9],59.9%
same,cleaved PARP positive nuclei fraction,[10],54.5%
"N.N.[Cl][Pt][Cl] [cisplatin] + O=C(O)[C@@H]1[O][Sb](=[O])([O][Sb]2(=[O])[O][C@H]([C@H](O)CO)[C@H](O)[C@H](C(=O)O)[O]2)[O][C@H]([C@H](O)CO)[C@@H]1O [stibogluconate] (first compound 1.6 µM, partner dose 2 µM)",cleaved PARP positive nuclei fraction,[1],124%
same,cleaved PARP positive nuclei fraction,[2],162%
same,cleaved PARP positive nuclei fraction,[3],255%
same,cleaved PARP positive nuclei fraction,[4],121%
same,cleaved PARP positive nuclei fraction,[5],44.5%
same,cleaved PARP positive nuclei fraction,[6],123%
same,cleaved PARP positive nuclei fraction,[7],91%
same,cleaved PARP positive nuclei fraction,[8],106%
same,cleaved PARP positive nuclei fraction,[9],73.6%
same,cleaved PARP positive nuclei fraction,[10],155%
"N.N.[Cl][Pt][Cl] [cisplatin] + C#Cc1cccc(Nc2ncnc3cc(OCCOC)c(OCCOC)cc23)c1 [erlotinib] (first compound 1.6 µM, partner dose 0.8 µM)",cleaved PARP positive nuclei fraction,[1],82.1%
same,cleaved PARP positive nuclei fraction,[2],65.2%
same,cleaved PARP positive nuclei fraction,[3],126%
same,cleaved PARP positive nuclei fraction,[4],74.2%
same,cleaved PARP positive nuclei fraction,[5],53%
same,cleaved PARP positive nuclei fraction,[6],59.5%
same,cleaved PARP positive nuclei fraction,[7],91.8%
same,cleaved PARP positive nuclei fraction,[8],115%
same,cleaved PARP positive nuclei fraction,[9],51.8%
same,cleaved PARP positive nuclei fraction,[10],37.5%
"CS(=O)(=O)c1ccc(C(=O)Nc2ccc(Cl)c(-c3ccccn3)c2)c(Cl)c1 [vismodegib] + C[As](C)SC[C@H](NC(=O)CC[C@H](N)C(=O)O)C(=O)NCC(=O)O [Darinaparsin] (first compound 1 µM, partner dose 0.4 µM)",cleaved PARP positive nuclei fraction,[1],77.5%
same,cleaved PARP positive nuclei fraction,[2],133%
same,cleaved PARP positive nuclei fraction,[3],46.7%
same,cleaved PARP positive nuclei fraction,[4],77.4%
same,cleaved PARP positive nuclei fraction,[5],67.5%
same,cleaved PARP positive nuclei fraction,[6],131%
same,cleaved PARP positive nuclei fraction,[7],64.1%
same,cleaved PARP positive nuclei fraction,[8],111%
same,cleaved PARP positive nuclei fraction,[9],73.3%
same,cleaved PARP positive nuclei fraction,[10],31.7%
"Cn1cc(C2=C(c3cn(C4CCN(Cc5ccccn5)CC4)c4ccccc34)C(=O)NC2=O)c2ccccc21 [Enzastaurin] + Cn1c(=O)n(-c2ccc(C(C)(C)C#N)cc2)c2c3cc(-c4cnc5ccccc5c4)ccc3ncc21 [NVP-BEZ235] (first compound 0.8 µM, partner dose 0.004 µM)",cleaved PARP positive nuclei fraction,[1],72.7%
same,cleaved PARP positive nuclei fraction,[2],104%
same,cleaved PARP positive nuclei fraction,[3],109%
same,cleaved PARP positive nuclei fraction,[4],123%
same,cleaved PARP positive nuclei fraction,[5],59.7%
same,cleaved PARP positive nuclei fraction,[6],26.4%
same,cleaved PARP positive nuclei fraction,[7],172%
same,cleaved PARP positive nuclei fraction,[8],153%
same,cleaved PARP positive nuclei fraction,[9],192%
same,cleaved PARP positive nuclei fraction,[10],38.3%
"O=C(/C=C/c1cccnc1)NCCCCC1CCN(C(=O)c2ccccc2)CC1 + C[C@]12O[C@H](C[C@]1(O)CO)n1c3ccccc3c3c4c(c5c6ccccc6n2c5c31)CNC4=O [Lestaurtinib] (first compound 0.01 µM, partner dose 0.004 µM)",cleaved PARP positive nuclei fraction,[1],2090%
same,cleaved PARP positive nuclei fraction,[2],320%
same,cleaved PARP positive nuclei fraction,[3],219%
same,cleaved PARP positive nuclei fraction,[4],285%
same,cleaved PARP positive nuclei fraction,[5],5310%
same,cleaved PARP positive nuclei fraction,[6],414%
same,cleaved PARP positive nuclei fraction,[7],266%
same,cleaved PARP positive nuclei fraction,[8],593%
same,cleaved PARP positive nuclei fraction,[9],34.6%
same,cleaved PARP positive nuclei fraction,[10],143%
"CCCCCCCCCCCCCCCCCCOP(=O)([O-])OC1CC[N+](C)(C)CC1 [Perifosine] + Cn1cc(C2=C(c3cn(C4CCN(Cc5ccccn5)CC4)c4ccccc34)C(=O)NC2=O)c2ccccc21 [Enzastaurin] (first compound 0.4 µM, partner dose 0.8 µM)",cleaved PARP positive nuclei fraction,[1],164%
same,cleaved PARP positive nuclei fraction,[2],78.1%
same,cleaved PARP positive nuclei fraction,[3],104%
same,cleaved PARP positive nuclei fraction,[4],56.7%
same,cleaved PARP positive nuclei fraction,[5],92.5%
same,cleaved PARP positive nuclei fraction,[6],91%
same,cleaved PARP positive nuclei fraction,[7],495%
same,cleaved PARP positive nuclei fraction,[8],143%
same,cleaved PARP positive nuclei fraction,[9],239%
same,cleaved PARP positive nuclei fraction,[10],56.2%
"N.N.[Cl][Pt][Cl] [cisplatin] + Nc1nc(F)nc2c1ncn2[C@@H]1O[C@H](CO)[C@@H](O)[C@@H]1O [fludarabine] (first compound 1.6 µM, partner dose 0.2 µM)",cleaved PARP positive nuclei fraction,[1],24.2%
same,cleaved PARP positive nuclei fraction,[2],174%
same,cleaved PARP positive nuclei fraction,[3],82.9%
same,cleaved PARP positive nuclei fraction,[4],81.3%
same,cleaved PARP positive nuclei fraction,[5],113%
same,cleaved PARP positive nuclei fraction,[6],43.1%
same,cleaved PARP positive nuclei fraction,[7],56.9%
same,cleaved PARP positive nuclei fraction,[8],144%
same,cleaved PARP positive nuclei fraction,[9],158%
same,cleaved PARP positive nuclei fraction,[10],91.1%
"Cn1cc(C2=C(c3cn(C4CCN(Cc5ccccn5)CC4)c4ccccc34)C(=O)NC2=O)c2ccccc21 [Enzastaurin] + CCCCCCCCc1ccc(CCC(N)(CO)CO)cc1 [fingolimod] (first compound 0.8 µM, partner dose 2 µM)",cleaved PARP positive nuclei fraction,[1],92.1%
same,cleaved PARP positive nuclei fraction,[2],66.5%
same,cleaved PARP positive nuclei fraction,[3],211%
same,cleaved PARP positive nuclei fraction,[4],127%
same,cleaved PARP positive nuclei fraction,[5],97.8%
same,cleaved PARP positive nuclei fraction,[6],42.3%
same,cleaved PARP positive nuclei fraction,[7],60.6%
same,cleaved PARP positive nuclei fraction,[8],99.9%
same,cleaved PARP positive nuclei fraction,[9],59.4%
same,cleaved PARP positive nuclei fraction,[10],53.5%
"CC1(C)CCC(c2ccc(Cl)cc2)=C(CN2CCN(c3ccc(C(=O)NS(=O)(=O)c4ccc(N[C@H](CCN5CCOCC5)CSc5ccccc5)c(S(=O)(=O)C(F)(F)F)c4)cc3)CC2)C1 + C[C@]12O[C@H](C[C@]1(O)CO)n1c3ccccc3c3c4c(c5c6ccccc6n2c5c31)CNC4=O [Lestaurtinib] (first compound 0.4 µM, partner dose 0.004 µM)",cleaved PARP positive nuclei fraction,[1],77.7%
same,cleaved PARP positive nuclei fraction,[2],271%
same,cleaved PARP positive nuclei fraction,[3],55.2%
same,cleaved PARP positive nuclei fraction,[4],70%
same,cleaved PARP positive nuclei fraction,[5],167%
same,cleaved PARP positive nuclei fraction,[6],150%
same,cleaved PARP positive nuclei fraction,[7],73.5%
same,cleaved PARP positive nuclei fraction,[8],207%
same,cleaved PARP positive nuclei fraction,[9],81.2%
same,cleaved PARP positive nuclei fraction,[10],17.5%
"C[C@]12O[C@H](C[C@]1(O)CO)n1c3ccccc3c3c4c(c5c6ccccc6n2c5c31)CNC4=O [Lestaurtinib] + C[C@]1(O)C[C@@H](c2nc(-c3ccc4ccc(-c5ccccc5)nc4c3)c3c(N)nccn32)C1 [OSI906] (first compound 0.004 µM, partner dose 0.4 µM)",cleaved PARP positive nuclei fraction,[1],40%
same,cleaved PARP positive nuclei fraction,[2],76.5%
same,cleaved PARP positive nuclei fraction,[3],83.7%
same,cleaved PARP positive nuclei fraction,[4],186%
same,cleaved PARP positive nuclei fraction,[5],81.5%
same,cleaved PARP positive nuclei fraction,[6],51%
same,cleaved PARP positive nuclei fraction,[7],132%
same,cleaved PARP positive nuclei fraction,[8],135%
same,cleaved PARP positive nuclei fraction,[9],138%
same,cleaved PARP positive nuclei fraction,[10],131%
"CCCCCCCCCCCCCCCCCCOP(=O)([O-])OC1CC[N+](C)(C)CC1 [Perifosine] + C[As](C)SC[C@H](NC(=O)CC[C@H](N)C(=O)O)C(=O)NCC(=O)O [Darinaparsin] (first compound 0.4 µM, partner dose 0.4 µM)",cleaved PARP positive nuclei fraction,[1],148%
same,cleaved PARP positive nuclei fraction,[2],96.5%
same,cleaved PARP positive nuclei fraction,[3],144%
same,cleaved PARP positive nuclei fraction,[4],75.3%
same,cleaved PARP positive nuclei fraction,[5],120%
same,cleaved PARP positive nuclei fraction,[6],53.5%
same,cleaved PARP positive nuclei fraction,[7],120%
same,cleaved PARP positive nuclei fraction,[8],87.3%
same,cleaved PARP positive nuclei fraction,[9],50.9%
same,cleaved PARP positive nuclei fraction,[10],126%
"CC[C@]1(O)C[C@H]2CN(CCc3c([nH]c4ccccc34)[C@@](C(=O)OC)(c3cc4c(cc3OC)N(C=O)[C@H]3[C@@](O)(C(=O)OC)[C@H](OC(C)=O)[C@]5(CC)C=CCN6CC[C@]43[C@@H]65)C2)C1 [vincristine] + N.N.[Cl][Pt][Cl] [cisplatin] (first compound 0.0001 µM, partner dose 1.6 µM)",cleaved PARP positive nuclei fraction,[1],92.6%
same,cleaved PARP positive nuclei fraction,[2],78.9%
same,cleaved PARP positive nuclei fraction,[3],169%
same,cleaved PARP positive nuclei fraction,[4],123%
same,cleaved PARP positive nuclei fraction,[5],68.8%
same,cleaved PARP positive nuclei fraction,[6],84%
same,cleaved PARP positive nuclei fraction,[7],259%
same,cleaved PARP positive nuclei fraction,[8],110%
same,cleaved PARP positive nuclei fraction,[9],200%
same,cleaved PARP positive nuclei fraction,[10],153%
"C[C@]12O[C@H](C[C@]1(O)CO)n1c3ccccc3c3c4c(c5c6ccccc6n2c5c31)CNC4=O [Lestaurtinib] + CN(c1ncccc1CNc1nc(Nc2ccc3c(c2)CC(=O)N3)ncc1C(F)(F)F)S(C)(=O)=O [PF562271] (first compound 0.004 µM, partner dose 0.08 µM)",cleaved PARP positive nuclei fraction,[1],89.4%
same,cleaved PARP positive nuclei fraction,[2],131%
same,cleaved PARP positive nuclei fraction,[3],51.3%
same,cleaved PARP positive nuclei fraction,[4],75.3%
same,cleaved PARP positive nuclei fraction,[5],144%
same,cleaved PARP positive nuclei fraction,[6],47.5%
same,cleaved PARP positive nuclei fraction,[7],80.1%
same,cleaved PARP positive nuclei fraction,[8],47.9%
same,cleaved PARP positive nuclei fraction,[9],81.4%
same,cleaved PARP positive nuclei fraction,[10],114%
"Cn1cc(C2=C(c3cn(C4CCN(Cc5ccccn5)CC4)c4ccccc34)C(=O)NC2=O)c2ccccc21 [Enzastaurin] + Cn1c(Nc2ccc(C(F)(F)F)cc2)nc2cc(Oc3ccnc(-c4ncc(C(F)(F)F)[nH]4)c3)ccc21 [CHIR265] (first compound 0.8 µM, partner dose 0.08 µM)",cleaved PARP positive nuclei fraction,[1],170%
same,cleaved PARP positive nuclei fraction,[2],101%
same,cleaved PARP positive nuclei fraction,[3],67.1%
same,cleaved PARP positive nuclei fraction,[4],96.5%
same,cleaved PARP positive nuclei fraction,[5],81.8%
same,cleaved PARP positive nuclei fraction,[6],116%
same,cleaved PARP positive nuclei fraction,[7],59.9%
same,cleaved PARP positive nuclei fraction,[8],365%
same,cleaved PARP positive nuclei fraction,[9],147%
same,cleaved PARP positive nuclei fraction,[10],171%
"N.N.[Cl][Pt][Cl] [cisplatin] + CS(=O)(=O)CCNCc1ccc(-c2ccc3ncnc(Nc4ccc(OCc5cccc(F)c5)c(Cl)c4)c3c2)o1 [lapatinib] (first compound 1.6 µM, partner dose 0.8 µM)",cleaved PARP positive nuclei fraction,[1],51.5%
same,cleaved PARP positive nuclei fraction,[2],239%
same,cleaved PARP positive nuclei fraction,[3],68.5%
same,cleaved PARP positive nuclei fraction,[4],83.3%
same,cleaved PARP positive nuclei fraction,[5],194%
same,cleaved PARP positive nuclei fraction,[6],79.1%
same,cleaved PARP positive nuclei fraction,[7],132%
same,cleaved PARP positive nuclei fraction,[8],49.7%
same,cleaved PARP positive nuclei fraction,[9],98.8%
same,cleaved PARP positive nuclei fraction,[10],34.3%

# 4 entries from above, set out differently.
smiles | measurement | setting | value
N.N.[Cl][Pt][Cl] [cisplatin] + C#Cc1cccc(Nc2ncnc3cc(OCCOC)c(OCCOC)cc23)c1 [erlotinib] (first compound 1.6 µM, partner dose 0.8 µM) | cleaved PARP positive nuclei fraction | [7] | 91.8%
same | cleaved PARP positive nuclei fraction | [8] | 115%
same | cleaved PARP positive nuclei fraction | [9] | 51.8%
same | cleaved PARP positive nuclei fraction | [10] | 37.5%
